No constants are given. Whether binding was seen depends on the method and setting. Some results given as binding are weak or reduced against the parent protein; the word gives no strength.

B1: HC 1251_A06/LC 1275_C10 (antibody, V domains shown)
VH: QVQLVESGGGVVQPGRSLRLSCAASGFDFSSYGMHWVRQAPDKGLEWVAVIWDDGSDRYYADSVKGRFTISRDNSKNTLYLQMNSLRAEDTAVYYCARGGTRVLGAIHGTDVWGQGTTVTVSS
VL: DIQMTQSPSSLSASVGDRVTITCRASQGVSSWLAWYQQKPEKAPKSLIYSARYLQSGVPSRFSGSGSGTDFTLTISSLQPEDFATYYCQQYNLYPLTFGGGTKVEIK
B2: HC 1251_B09/LC 1275_C10 (antibody, V domains shown)
VH: QVQLVESGGGVVQPGRSLRLSCAASGFNFSDYGMHWVRQAPDKGLEWVAVTWYDGSREYYADSVKGRFTISRDNSKNTLYLQMNSLRAEDTAVYYCARGGTLVHGALYGNDVWGQGTTVTVSS
VL: DIQMTQSPSSLSASVGDRVTITCRASQGVSSWLAWYQQKPEKAPKSLIYSARYLQSGVPSRFSGSGSGTDFTLTISSLQPEDFATYYCQQYNLYPLTFGGGTKVEIK
B3: HC 1251_B08/LC 1275_C10 (antibody, V domains shown)
VH: QVQLVESGGGVVQPGRSLRLSCAASGFNFSDYGMHWVRQAPDKGLEWVAVIWYDGSISYYADSVKGRFTISRDNSKNTLYLQMNSLRAEDTAVYYCARGGTVEHGAVYGTDVWGQGATVTVSS
VL: DIQMTQSPSSLSASVGDRVTITCRASQGVSSWLAWYQQKPEKAPKSLIYSARYLQSGVPSRFSGSGSGTDFTLTISSLQPEDFATYYCQQYNLYPLTFGGGTKVEIK

This assay has as its target CD74 from cynomolgus monkey, stably expressed on CHO cells (cynomolgus monkey). The experiment in a line: flow cytometry on CHO-cyno-CD74 cells, 100 nM antibody. (In general: In flow cytometry, cells or beads pass a laser one at a time.)
On to B1, for which the binding result was “binds”.

With B2, the binding entry is “binds”.

For the molecule B3, the binding result is “binds”.

(Values after patent publication US20170253656A1.)
